Results taken from article PMC12204631.
No constants are given. Whether binding was seen depends on the method and setting. Binding seen in cells or lysates may run through a third protein. These calls come from enrichment with a bait or labelling near it, and not all partners need be listed. Sequences can lack the tags named with a protein.

T1: 6HIS-HA-JHD2 (S. cerevisiae) (UniProt P47156)
T1 sequence: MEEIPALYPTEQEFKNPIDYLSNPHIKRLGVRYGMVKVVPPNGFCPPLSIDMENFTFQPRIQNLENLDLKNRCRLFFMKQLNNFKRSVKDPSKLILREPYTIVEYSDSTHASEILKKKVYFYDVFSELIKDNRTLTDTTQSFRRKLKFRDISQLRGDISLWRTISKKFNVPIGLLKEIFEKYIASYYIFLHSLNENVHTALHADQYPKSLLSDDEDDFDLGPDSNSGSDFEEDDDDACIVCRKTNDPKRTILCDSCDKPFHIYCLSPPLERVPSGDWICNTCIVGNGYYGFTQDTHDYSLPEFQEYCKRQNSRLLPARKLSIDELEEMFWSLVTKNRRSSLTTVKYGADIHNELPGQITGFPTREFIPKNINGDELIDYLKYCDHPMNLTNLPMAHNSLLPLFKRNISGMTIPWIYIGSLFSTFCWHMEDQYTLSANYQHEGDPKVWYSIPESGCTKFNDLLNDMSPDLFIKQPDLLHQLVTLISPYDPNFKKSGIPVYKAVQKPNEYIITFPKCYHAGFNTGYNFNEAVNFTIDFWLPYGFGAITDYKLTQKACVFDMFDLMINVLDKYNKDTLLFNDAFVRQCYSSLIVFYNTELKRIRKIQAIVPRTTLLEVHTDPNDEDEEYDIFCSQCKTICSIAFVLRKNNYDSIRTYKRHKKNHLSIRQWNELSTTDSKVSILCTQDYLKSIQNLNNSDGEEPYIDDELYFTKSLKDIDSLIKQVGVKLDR

B1: SPC19 (protein, UniProt Q03954 1-165)
chain: MTDALEQSVLALEGTVSVLKDSVESLKCANEPSTNLASTMLQTKRVFRLVPEYDVERSKLDLIEEVEPLVRTLGDKLRKSMGRMQRELDTLQQTYELNDLRLKKNISMDDDDALNSPDMGQEYEGRDADDVVMMASSTNEELEELKKLKEKKKQLENKLEILKQK
B2: MAD1 (protein, UniProt P40957 1-749)
chain: MDVRAALQCFFSALSGRFTGKKLGLEIYSIQYKMSNSGGSSPFLESPGGSPDVGSTNGQSNRQIQALQFKLNTLQNEYEIEKLQLQKQTNILEKKYKATIDELEKALNDTKYLYESNDKLEQELKSLKERSANSMNDKDKCIEELRTTLQNKDLEMETLRQQYDSKLSKVTNQCDHFKLEAESSHSLLMKYEKEIKRQSVDIKDLQHQVMEKDDELSSVKASKMINSHPNYSTEEFNELTEMNKMIQDQVQYTKELELANMQQANELKKLKQSQDTSTFWKLENEKLQNKLSQLHVLESQYENLQLENIDLKSKLTKWEIYNDSDDDDDNNVNNNDNNNNNKNDNNNDNNNDTSNNNNINNNNRTKNNIRNNPEEIIRDWKLTKKECLILTDMNDKLRLDNNNLKLLNDEMALERNQILDLNKNYENNIVNLKRLNHELEQQKSLSFEECRLLREQLDGLYSAQNNALLEVENSETHASNKNVNEDMNNLIDTYKNKTEDLTNELKKLNDQLLSNSNDVETQRKKRKLTSDQIGLNYSQRLNELQLENVSVSRELSKAQTTIQLLQEKLEKLTKLKEKKIRILQLRDGPFIKDQFIKKNKLLLLEKENADLLNELKKNNPAVETVPISVYDSLNFELKQFEQEVFKSNKRFSRLKQVFNNKSLEFIDVVNSLLGFKLEFQQDSRVKIFSCFKPEKYLIADLNENTLKSNLDADIEGWDDLMNLWVEDRGQLPCFLATITLRLWEQRQAK
B3: IRR1 (protein, UniProt P40541 1-1150)
chain: MTAVRRSTRIRTKSQVIEEDYDDEQNTSAQHVESDKITAKTQHEEEEEQDTGESEESSSEDDYEDQDDDDYVDTATAKRKSRKRKPKSASNTSSKRQKKKPTSAQKSAVSHAPAYHRSKKDQDQYLEIAKDFQPTELFDILSTSEDVSIEELLREWLETYSENRDKFLQEFINLLLNCCGSVARVEDHDVHSNESSNETIGEIQLLFQRQKLHEFYLLISKENKKRKNFKMGPLYQNFAEFMTKLLEVANDLQLLYVESDEDDTQIVTGNLVLDLLTWLSSFSVCKIRCFRYISTLTLYLFQDYLTQQAVNLEKNYLAKLSKQLSLEEKKKRPNNKTLEKLESTIAETQGSKVVIDSIIDNIVKLCFVHRYKDVSDLIRSESMLHLSIWIKNYPEYFLKVTFLKYFGWLLSDNSVSVRLQVTKILPHLIIQNHNSKSTDNSAIRQVFERFKTKILEVAIRDVNLDVRIHSIQVLTEASSLGYLDDSEILIISSLMFDEEFDPFKTSSFNKRSKFLSTVAKFLARVIKEKFDEFIKTHEDLPKEVDGLEVGPVVQVGIFIKILNDSLIYHLKDCAEVDSRTKIRMLTQAAEFLSPYISTHLKTICNLLISDTESNELIQKLQNSANNNSDDEDVDDEELDITPLFPIDRNSTILYLNVFHGLCAGANNPKIQTKDSVKEIVLPLFYDLLNAASIESADILCPLLESFITFSLDDWISIGYETELKKITDKTIKAFMDSTIGNSKVDMKYDIFAKFIHHIHHFEKKELQEKFLNQIATLKIHLKKFLQEKMDPNNSRDDYKDLTCSLYELYINKLTILGRDYPIEVDEELLQLFLNNFVSRIPIMFQDFDDSTAQEINFKMLVLLATWNLEKWREIIEKVRDYENSISKDLRSVWKPIAAIIGRLNTLVISLAATNETFENINSLFYLKWSACTSLMDIIVAIKIFELKLPADATTWRYSMSEQFPFYLHDNASKVLLKIFLYLESLFAKQVDVQLERVADEDANLNDLPETGFFENIETEFLLFTVKLKGLMKLNILDERFASRVALNKEKLGPLFKKIVDDTIMENPEPNKKNIQKAKSNQTQREKAPLQPNSERETDHANTENNDPDIPMTIDLEPIEESSQNNSELAPIEEHPTVVDAIDNSDEITQD
B4: RIO1 (protein, UniProt Q12196 1-484)
chain: MSLEDKFDSLSVSQGASDHINNQLLEKYSHKIKTDELSFSRAKTSKDKANRATVENVLDPRTMRFLKSMVTRGVIADLNGCLSTGKEANVYHAFAGTGKAPVIDEETGQYEVLETDGSRAEYAIKIYKTSILVFKDRERYVDGEFRFRNSRSQHNPRKMIKIWAEKEFRNLKRIYQSGVIPAPKPIEVKNNVLVMEFLSRGNGFASPKLKDYPYKNRDEIFHYYHTMVAYMRLLYQVCRLVHADLSEYNTIVHDDKLYMIDVSQSVEPEHPMSLDFLRMDIKNVNLYFEKMGISIFPERVIFQFVISETLEKFKGDYNNISALVAYIASNLPIKSTEQDEAEDEIFRSLHLVRSLGGLEERDFDRYTDGKFDLLKSLIAHDNERNFAASEQFEFDNADHECSSGTEEFSDDEEDGSSGSEEDDEEEGEYYDDDEPKVLKGKKHEDKDLKKLRKQEAKDAKREKRKTKVKKHIKKKLVKKTKSKK
B5: SPC34 (protein, UniProt P36131 1-295)
chain: MGESLDRCIDDINRAVDSMSTLYFKPPGIFHNAILQGASNKASIRKDITRLIKDCNHDEAYLLFKVNPEKQSVSRRDGKEGVFDYVIKRDTDMKRNRRLGRPGEKPIIHVPKEVYLNKDRLDLNNKRRRTATTSGGGLNGFIFDTDLIGSSVISNSSSGTFKALSAVFKDDPQIQRLLYALENGSVLMEEESNNQRRKTIFVEDFPTDLILKVMAEVTDLWPLTEFKQDYDQLYHNYEQLSSKLRFIKKEVLLQDDRLKTMSQYHPSSSHDVAKIIRKEKDEIRRLEMEIANLQE
B6: SGT1 (protein, UniProt Q08446 1-395)
chain: MPVEKDLKTAYKALYDEKEPLKALHLYDEILKGSPTNLTALIFKAACLEKLYFGFSDWHSDATMENAKELLDKALMTAEGRGDRSKIGLVNFRYFVHFFNIKDYELAQSYFKKAKNLGYVDDTLPLWEDRLETKLNKKNKKQKDSTNKHTIKPVESIENRGDNNSSHSPISPLKIETAPQESPKFKIDWYQSSTSVTISLFTVNLPESKEQVNIYISPNDRRTLSISYQVPKSGSEFQYNAKLSHEVDPKAVSLKIFPKKLEITLSKIDSTQWKKLEEDILTESSRLSDEGKNSDSATRLLSAETASKERLSYPSSSKKKIDWSKLDIDEEADEEAGSADSFFQKLYAGADPDTKRAMMKSFIESNGTALSTDWEDVSKGTVKTSPPEGMEPKHW
B7: PSH1 (protein, UniProt Q12161 1-406)
chain: MGDELHNRLLHQNDGTKDAILYKIIESLVCSICHDYMFVPMMTPCGHNYCYGCLNTWFASNTQKELACPQCRSDITTIPALNTTLQQYLSFILEKLRDQNDESFKKLLTTKTKEENDYKNDKEKDTLFDKVFKNSALAVADDSDDGITRCSNCHWELDPDEVEDGNVCPHCNARIRNYAGGRDEFDEEEYSEGELDEIRESMRRRRENRFASTNPFANRDDVSSEDDDSSEEEPMREHIPLGRWARSHNRSIAVDAVDDEDDEEEDEEEEEEMDSDLKDFIEDDEDDEDEDGSRRNLVLSALKNRHVIITDDEEEEQRRHATEEEDRDSDFYEHNDDGFVSGDSLDEDQKEVTRIQSSSDSEDRSLSYSGSSDVKDNNDDNTEELDDPQPKRQKRFRVVLGDSDDE
B8: SLK19 (protein, UniProt Q08581 1-821)
chain: MNEVPTTPVRLILGQAQQREQNSENCSQERNPRTFNSEPDSSFNSPGSSQFVIHPHEPLEKEKDEKQDLDRSIDYGRSSALNNKNNANPLENIDINKMFDDKKSDSGTNDDKGGASTSDKHVLALNYSPIRVEMNSSEKRSDKNVDVDENDKEGSHINKKLKLQLESVPDLKQSSTKDIINDKEEIMSSPMAIDMIETNISPNKFIINDGVERNDSFNINTDTLKLENDINEKQQEEDFIKSNSNNVVNIDNAYKEKEDEENDITNSHINRLTPLYETSARESNSNEEGRNDYDDDNQLDIRHDNFQIVAKRNEELTDQIYHLNQMLNSLISKNESLSFQYEKLNKNHQLLIDLTNEKLDKLNTERESDIAKVEKFKKRIKELNTEIKVLNSNQKILQEKFDASITEVNHIKGEHENTVNTLQQNEKILNDKNVELENMKAELKGNNDKLSEYETTLNDLNSRIVQLNDKIESTDIVLKSKENELDNLKLSLKETLSISKDFNDSDLIGQINELISTKNNLQQKMDDLNNLNDDNLKVVQDKLIKNEETLKLKEAEIDSLNSEMDELKKQITSKDDEFKMWQSKYETVEDEAKIRNAEVTELNGDIEDLKESKLHLEETITELENKVHKLENECELEKQKFEKTSLELESLQLKNSNIQAEHIKELENLHENLISLQNELKISSDRITTLTKENEVLMEQNNNNNNSVTLSNDQKDRDDEKIKSLGKQVQDWKEKYEAKEKDTNKRLKLLAEDLYIQYSSKHEQKVKLLKKGYENKYQNKFDQLNLENKTLSEEIEQLNKQLSSEREEKQELLKLLENEKK
B9: HSK3 (protein, UniProt P69852 1-69)
chain: MNANKQRQYNQLAHELRELQTNLQETTKQLDIMSKQCNENLVGQLGKVHGSWLIGSYIYYMEQMLGKTQ

biological target: T1, 6HIS-HA-JHD2 (S. cerevisiae); test: affinity purification with mass spectrometry; whole cell extracts of a wild-type strain with 6HIS-HA-JHD2 induced from the GAL1 promoter for 6 hours; Ni-NTA agarose and anti-HA agarose beads at 4°C for 24 hours; proteins found with the empty vector strain excluded

binding, binds:
B1
B2
B3
B4
B5
B6
B7
B8
B9
